Source: the supplement of paper PMC7238544
Where a name gives a salt, the structure may show the parent alone. ± gives the standard deviation of the averaged measurements. Some of the results follow. The data scatter; read single values as rough.

Key:
hAMSC donor 1 [1] = experiment: Hoechst total cell count ratio vs vehicle control; higher = more cells (less toxicity)
hAMSC donor 2 [2] = experiment: as above
hAMSC donor 1 [3] = experiment: transgenic luciferase activity (RLU/mg protein) fold change vs vehicle control (ratio); higher = more transgene expression
hAMSC donor 1 [4] = experiment: transfection efficiency (EGFP+ cells / Hoechst count) fold change vs vehicle control (ratio); higher = enhanced transfection
hAMSC donor 2 [5] = experiment: as above
hAMSC donor 2 [6] = experiment: transgenic luciferase activity (RLU/mg protein) fold change vs vehicle control (ratio); hAMSC are human adipose-derived mesenchymal stem cells given an EGFP-luciferase plasmid by lipofection; higher = more transgene expression
[7] = priming compound concentration 0.2 µM
[8] = priming compound concentration 1.7 µM
[9] = priming compound concentration 13 µM

Structure (SMILES)	Hoechst total cell count ratio (hAMSC donor 1 [1]; [7])	Hoechst total cell count ratio (hAMSC donor 1 [1]; [8])	Hoechst total cell count ratio (hAMSC donor 1 [1]; [9])	Hoechst total cell count ratio (hAMSC donor 2 [2]; [7])	Hoechst total cell count ratio (hAMSC donor 2 [2]; [8])	Hoechst total cell count ratio (hAMSC donor 2 [2]; [9])	transgenic luciferase activity (hAMSC donor 1 [3]; [7])	transfection efficiency (hAMSC donor 1 [4]; [7])	transfection efficiency (hAMSC donor 1 [4]; [8])	transfection efficiency (hAMSC donor 1 [4]; [9])	transfection efficiency (hAMSC donor 2 [5]; [7])	transfection efficiency (hAMSC donor 2 [5]; [8])	transfection efficiency (hAMSC donor 2 [5]; [9])	transgenic luciferase activity (hAMSC donor 2 [6]; [7])	transgenic luciferase activity (hAMSC donor 1 [3]; [9])	transgenic luciferase activity (hAMSC donor 2 [6]; [9])	transgenic luciferase activity (hAMSC donor 1 [3]; [8])	transgenic luciferase activity (hAMSC donor 2 [6]; [8])
Cc1ncc2n1-c1ccc(Cl)cc1C(c1ccccc1F)=NC2 [Midazolam hydrochloride]	1.35 ± 0.042	1.57 ± 0.049	1.38 ± 0.062	0.923 ± 0.061	1.05 ± 0.072	1.04 ± 0.14	0.898 ± 0.27	0.891 ± 0.098	0.943 ± 0.21	1.07 ± 0.29	1.21 ± 0.19	1.14 ± 0.02	1.11 ± 0.26					
COc1ccc2[nH]cc(CCN)c2c1 [5-Methoxytryptamine]	1.26 ± 0.044	1.3 ± 0.095	1.4 ± 0.19	1.1 ± 0.17	1.19 ± 0.031	1.01 ± 0.19	0.779 ± 0.81	1.32 ± 0.2	1.17 ± 0.2	1.38 ± 0.18	1.05 ± 0.2	0.928 ± 0.066	1.24 ± 0.084	0.663 ± 0.061				
C=CCN1CC[C@]23c4c5ccc(O)c4O[C@H]2C(=O)CC[C@@]3(O)[C@H]1C5 [Naloxone hydrochloride]	1.3 ± 0.17	1.36 ± 0.26	1.5 ± 0.043	1.18 ± 0.038	1.11 ± 0.089	1.24 ± 0.12		1 ± 0.32	1.17 ± 0.29	0.995 ± 0.27	1.3 ± 0.12	0.987 ± 0.017	0.927 ± 0.092	0.88 ± 0.13	0.604 ± 0.11	0.89 ± 0.41		
O=C(O)CCCc1ccc(N(CCCl)CCCl)cc1 [Chlorambucil]	1.24 ± 0.13	1.26 ± 0.33	0.912 ± 0.083	1.18 ± 0.081	1.12 ± 0.14	0.764 ± 0.042		0.825 ± 0.2	1.16 ± 0.4	1.2 ± 0.36	1.13 ± 0.36	0.946 ± 0.087	1.4 ± 0.24	0.748 ± 0.14	0.438 ± 0.036	0.738 ± 0.19		
COc1cc(N)c(Cl)cc1C(=O)NC1CN2CCC1CC2 (stereo not given) [Zacopride hydrochloride hydrate]	1.24 ± 0.027	1.21 ± 0.13	0.968 ± 0.028	1.07 ± 0.2	0.785 ± 0.1	1.31 ± 0.15		1.01 ± 0.14	1.07 ± 0.52	0.906 ± 0.23	1.4 ± 0.42	1.42 ± 0.26	0.963 ± 0.23	0.817 ± 0.23		1.31 ± 0.62	2.07 ± 1.1	5.41 ± 3.2
CC(O)(CS(=O)(=O)c1ccc(F)cc1)C(=O)Nc1ccc(C#N)c(C(F)(F)F)c1 (stereo not given) [Bicalutamide]	1.29 ± 0.15	1.3 ± 0.26	1.28 ± 0.028	0.835 ± 0.15	1.33 ± 0.3	2.73 ± 0.66		1.03 ± 0.16	1.19 ± 0.74	0.687 ± 0.068	1.19 ± 0.41	1.01 ± 0.31	0.857 ± 0.046	0.464 ± 0.19		0.126 ± 0.041	1.08 ± 0.39	0.794 ± 0.058
CS(=O)(=O)Nc1ccc(Cc2noc(-c3ccc4[nH]cc(CCN)c4c3)n2)cc1	1.15 ± 0.064	1.18 ± 0.098	1.36 ± 0.15	1.06 ± 0.27	1.36 ± 0.053	1.13 ± 0.066		1.1 ± 0.16	1.47 ± 0.075	0.726 ± 0.22	1.13 ± 0.091	1.03 ± 0.081	0.781 ± 0.19		0.943 ± 0.52			
COc1cccc(C2(O)CCCCC2CN(C)C)c1 (stereo not given) [Tramadol hydrochloride]	1.14 ± 0.082	1.04 ± 0.079	1.09 ± 0.08	1.08 ± 0.35	1.24 ± 0.37	1.25 ± 0.19		1.09 ± 0.36	1.3 ± 0.14	1.36 ± 0.38	1.23 ± 0.18	1.36 ± 0.34	0.98 ± 0.25	1.09 ± 0.41			0.875 ± 0.072	1.35 ± 0.43
C[N+]1(C)CCCC(OC(=O)C(O)(c2ccccc2)c2ccccc2)C1 (stereo not given) [Mepenzolate bromide]	1.42 ± 0.085	1.14 ± 0.18	1.52 ± 0.096	1.19 ± 0.12	0.981 ± 0.1	0.843 ± 0.091	0.884 ± 0.35	1.08 ± 0.16	1.21 ± 0.18	0.977 ± 0.068	0.9877 ± 0.0035	1.69 ± 0.14	1.36 ± 0.12	0.77 ± 0.19	0.585 ± 0.023			0.301 ± 0.023
CC(C)N(CCC(C(N)=O)(c1ccccc1)c1ccccn1)C(C)C (stereo not given) [Disopyramide phosphate]	0.945 ± 0.05	1.08 ± 0.069	1.47 ± 0.13	1.04 ± 0.17	1.19 ± 0.27	1.04 ± 0.32	0.732 ± 0.098	1.19 ± 0.19	1.1 ± 0.15	0.924 ± 0.25	0.993 ± 0.26	1.14 ± 0.21	0.975 ± 0.19			0.408 ± 0.13	0.498 ± 0.17	0.725 ± 0.17
O=P1(N(CCCl)CCCl)NCCCO1 (stereo not given) [Cyclophosphamide hydrate]	1.29 ± 0.062	1.26 ± 0.28	1.31 ± 0.1	1.1 ± 0.023	1.16 ± 0.012	1.41 ± 0.066		0.773 ± 0.12	1.14 ± 0.14	0.918 ± 0.15	1.2 ± 0.18	1 ± 0.13	0.853 ± 0.061	0.754 ± 0.15	0.798 ± 0.12	0.723 ± 0.13		
OC1CCCCC1N1CCC(c2ccccc2)CC1 (racemic) [(+/-)-Vesamicol hydrochloride]	1.38 ± 0.11	1.62 ± 0.031	1.29 ± 0.07	1 ± 0.34	1.11 ± 0.077	1.27 ± 0.3	0.91 ± 0.57	0.942 ± 0.28	0.72 ± 0.37	0.849 ± 0.23	1.15 ± 0.39	0.949 ± 0.034	0.732 ± 0.18					
CC[C@@H]1/C=C/C=C/C[C@H](C)[C@H](O)[C@](C)(O)C(=O)[C@H](C)[C@@H](O)[C@H](C)C(=O)[C@H](C)[C@@H](O)[C@H](C)/C=C/C(=O)O[C@H]2[C@@H](C)[C@@H](CC1)O[C@@]1(CC[C@@H](C)[C@@H](C[C@H](C)O)O1)[C@@H]2C [Oligomycin A]	0.88 ± 0.081	0.802 ± 0.022	0.784 ± 0.12	1.29 ± 0.24	1.25 ± 0.097	1.32 ± 0.23		1.2 ± 0.45	1.44 ± 0.41	1.06 ± 0.45	0.993 ± 0.14	0.874 ± 0.15	0.608 ± 0.05	0.942 ± 0.15			1.57 ± 0.8	1 ± 0.078
Cc1nnc2n1-c1ccc(Cl)cc1C(c1ccccc1)=NC2 [Alprazolam]	1.41 ± 0.17	1.26 ± 0.11	1.14 ± 0.13	1.2 ± 0.095	1.18 ± 0.071	1.13 ± 0.16	1.1 ± 0.3	0.932 ± 0.18	1.03 ± 0.31	1.04 ± 0.31	0.893 ± 0.032	0.972 ± 0.1	1.2 ± 0.24					

Only Hoechst total cell count ratio (hAMSC donor 1 [1]; [7]), transgenic luciferase activity (hAMSC donor 1 [3]; [7]) and transfection efficiency (hAMSC donor 2 [5]; [7]) (2 entries from above):
Structure (SMILES) | Hoechst total cell count ratio (hAMSC donor 1 [1]; [7]) | transgenic luciferase activity (hAMSC donor 1 [3]; [7]) | transfection efficiency (hAMSC donor 2 [5]; [7])
Cc1ncc2n1-c1ccc(Cl)cc1C(c1ccccc1F)=NC2 [Midazolam hydrochloride] | 1.35 ± 0.042 | 0.898 ± 0.27 | 1.21 ± 0.19
Cc1nnc2n1-c1ccc(Cl)cc1C(c1ccccc1)=NC2 [Alprazolam] | 1.41 ± 0.17 | 1.1 ± 0.3 | 0.893 ± 0.032
